In PubChem BioAssay AID2733 (National Center for Advancing Translational Sciences (NCATS), 2010):
Inconclusive means that the source gave no clear call. Such entries were picked first, then a sample of the others. Potencies of inconclusive entries are doubtful fits and often do not repeat. Active and inactive are the calls of the source. The call rests on the fitted dose curve; in most records, active means well fitted inhibition curve with a large enough effect; inconclusive means small, poorly fitted or top-dose-only effect; inactive means flat fitted curve, though single readings scatter.

Assay: High Content Assay for Compounds that inhibit the Assembly of the Perinucleolar Compartment: PC3M Cytotoxicity
Conditions: PC3M cells, ATPLite luminescence viability, 24 h; series mostly up to 46.1 µM; activity change, negative = cytotoxicity: at the top concentration
In short: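 PC3M-GFP cells (2000/well) adhered 4 h, then given 23 nl of compound stock in duplicate. After 24 h at 37 C, ATP measured by ATPLite luminescence; camptothecin positive control, DMSO negative.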

SMILES | activity change, negative = cytotoxicity | Potency
Cc1ccc(Cl)cc1N(CC(=O)N1CCCCCC1)S(C)(=O)=O | inactive: -19% | –
COc1ccc(C(=O)Nc2nc3c(s2)CCCC3)cc1S(=O)(=O)N1CCCc2ccccc21 | – | inconclusive: 5.62 µM [inhibitor, full curve, poor fit]
Cc1oc(-c2ccccc2Cl)nc1CSCC(=O)N1CCCC1 | – | inconclusive: 3.98 µM [inhibitor, full curve]
O=C(Nc1cccnc1)c1cccs1 | inactive: 13.2% | –
CCOC(=O)CSc1nc2c(sc3ccc([N+](=O)[O-])cc32)c(=O)n1Cc1ccco1 | inactive: 8.39% | –
CCN1C(=O)c2cccc3c(S(=O)(=O)N(C(=O)c4ccncc4)c4ccc(OC)cc4)ccc1c23 | – | inconclusive: 35.5 µM [inhibitor, single point]
COC(=O)C1=C(C)N(c2ccc(Br)cc2)C(=O)/C1=C\c1ccco1 | inactive: -9.56% | –
CCOc1ccc(CN(C)CC(=O)Nc2cc(OC)c([N+](=O)[O-])cc2C)cc1 | – | inconclusive: 28.2 µM [inhibitor, partial curve]
Cc1ccc(C(C)C)c(OCc2ccc(C(=O)N/N=C/c3ccc(O)cc3O)cc2)c1 | – | inconclusive: 7.94 µM [inhibitor, full curve]
Cc1ccc(OCCn2cc(C(=S)N3CCCC3)c3ccccc32)cc1C | – | inconclusive: 7.94 µM [inhibitor, full curve]
COC(=O)c1ccc(CSc2ccccc2C)o1 | inactive: 11.2% | –
COc1cccc(CNc2cccc3cccnc23)c1O | inactive: -0.123% | –
CN1c2ccccc2C(C)(C)C12CC(c1ccc(Cl)c(S(=O)(=O)N3CCCC3)c1)=NO2 (stereo not drawn) | – | active: 3.98 µM
